This list was built around the results that the source calls inconclusive (neither active nor inactive); the mix of calls is not that of the screen. Potencies beside an inconclusive call are fits to weak or partial responses and may not hold up. Calls of active or inactive are those of the source. Rule for the calls: active = hit-call score of the fitted dose curve at least 0.9, where 1 is the maximum; inconclusive = response in the unintended direction; inactive = score below 0.9.
What follows are compounds tested on frog Glucocorticoid Receptor (GR), gene 397897 (assay: ATG_frGR_EcoTox2: Attagene TRANS-FACTORIAL EcoTox-2 HepG2 Assay for frog Glucocorticoid Receptor (GR)).
Experimental: ATG_EcoTox2 is a cell-based, multiplexed assay created by modifying the existing Attagene TRANS-FACTORIAL system to include a panel of nuclear receptors from some or all the following species: human (Homo sapiens), african clawed frog (Xenopus laevis), rainbow trout (Oncorhynchus mykiss), japanese medaka (Oryzias latipes), and zebrafish (Danio rerio). The ECOTOX2-FACTORIAL format uses HepG2, a human liver cell line, with measurements taken at 24 hours after chemical dosing in a 24-well plate. ATG_frGR_EcoTox2 is one of 29 assay components calculated in the ATG_EcoTox2 assay. It is designed to make measurements of mRNA induction, a form of inducible reporter, as detected with fluorescence intensity signals by Reverse transcription polymerase chain reaction (RT-PCR) and Capillary electrophoresis technology.The assay endpoint ATG_frGR_EcoTox2 was analyzed in the positive analysis fitting direction relative to DMSO as the negative control and baseline of activity. Using a type of inducible reporter, measures of mRNA for gain-of-signal activity can be used to understand the reporter gene at the transcription factor-level as they relate to the gene for glucocorticoid receptor. Furthermore, this assay endpoint can be referred to as a primary readout, because this assay has produced multiple assay endpoints where this one serves a reporter gene function. To generalize the intended target to other relatable targets, this assay endpoint is annotated to the nuclear receptor intended target family, where the subfamily is steroidal.
Human liver HepG2 cells are transiently transfected with multiple reporter transcription units (MRTUs) in 6-well plates using FuGene 6 reagent (Roche; 3 ml FuGene/1 mg DNA). The MRTU constructs are regulated by a cis-regulating element (promoter). Each RTU expresses a GAL4-UAS that regulates the transcription of a nearby target reporter gene sequence. A major difference between the CIS and TRANS system is that in CIS activities of endogenous TFs are measured, whereas the TRANS assay evaluates changes in activities of exogenous, chimeric NR-Gal4 proteins. […] At the end of 24 hour incubation, total RNA was isolated using TriZol reagent (Invitrogen). The isolated RNA is then reverse-transcribed using oligo(dT) primer and Mo-MLV reverse transcriptase (Invitrogen) with DNAse I (Ambion) treatment for 30 min. The one-tenth of the produced cDNA was amplified by PCR using Taq DNA polymerase (Invitrogen) and two reporter sequence-specific primers. The PCR products were fluorescently labeled by primer extension with 6-arboxyfluorescein (6-FAM) 5'-labeled reporter sequence-specific primer (2 min at 95 C, 20 s at 68 C and 10 min at 72 C) and these products were digested with 5U of HpaI (New England Biolabs) for 2h at 37 C. The fragments were purified using Qiaquick PCR columns (Qiagen), analyzed on an ABI 3130xL genetic analyzer (Applied Biosystems) with peak positions identified by using a set of X-rhodamine (ROX)-labeled MapMarker1000 molecular weight standards (BioVentures). The raw capillary electrophoresis data was processed using Attagraph software (Attagene).
For `CC(C)(Oc1ccc(CCNC(=O)c2ccc(Cl)cc2)cc1)C(=O)O`, the outcome was “inactive”.
In the case of `CN(CCOc1ccc(CC2SC(=O)NC2=O)cc1)c1ccccn1` (stereo unspecified), the AC50 is reported as active: 30.8 µM.
With `Cc1nc(-c2ccc(C(F)(F)F)cc2)sc1C(=O)NCc1ccc(OC(C)(C)C(=O)O)cc1` the AC50 was inconclusive: 0.0823 µM.
In the case of `CC(c1cc2ccccc2s1)N(O)C(N)=O` (stereo unspecified), the AC50 is reported as active: 34.3 µM.
With `Cc1c(C)c2c(c(C)c1O)CCC(C)(COc1ccc(CC3SC(=O)NC3=O)cc1)O2` (stereo unspecified) the AC50 was inconclusive: 0.104 µM.
`Cc1ccc(C)c(OCCCC(C)(C)C(=O)O)c1` was tested, and the outcome was “inactive”.

— PubChem BioAssay AID2284330 (EPA ToxCast)
